This is one part of the list.

The test has as its target T1, OsSMF1 (Oryza sativa, UniProt Q6ZLB0 1-436).
T1 sequence: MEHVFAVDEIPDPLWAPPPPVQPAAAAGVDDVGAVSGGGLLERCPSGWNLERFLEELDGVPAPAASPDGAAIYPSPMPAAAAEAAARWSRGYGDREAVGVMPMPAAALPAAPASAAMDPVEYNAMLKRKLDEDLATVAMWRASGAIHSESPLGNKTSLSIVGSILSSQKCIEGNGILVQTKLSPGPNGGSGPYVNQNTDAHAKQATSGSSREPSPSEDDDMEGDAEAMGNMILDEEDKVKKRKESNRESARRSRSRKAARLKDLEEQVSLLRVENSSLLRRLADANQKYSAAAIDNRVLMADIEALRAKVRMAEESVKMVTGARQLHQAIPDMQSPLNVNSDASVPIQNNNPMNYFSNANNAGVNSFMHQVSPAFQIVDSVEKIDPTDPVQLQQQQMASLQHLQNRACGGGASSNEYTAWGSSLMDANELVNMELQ
In words: protein-binding microarray (RPBM); PBS, 2% BSA, 51.3 ng/ul salmon testes DNA, 50 uM zinc acetate, 200 nM TF, 25 C, 1 h; high values mean tight binding. The conditions noted are these: protein: recombinant; tags: N-terminal polyhistidine and DsRed monomer fusion (pET32a); chain copies: 2; label: CyDye5-dUTP incorporated in the synthesized complementary strand; 3' TTTTT single-stranded linker to array surface; dsDNA, one strand shown. In outline:
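Binding signal here means per-feature fluorescence intensity in arbitrary units. The values were read on an Axon 4000B scanner after a custom Agilent array, double-stranded by primer extension with Cy5-dUTP, was incubated with 200 nM protein at 25 °C for 1 h in PBS with 2% BSA, salmon testes DNA and 50 µM zinc acetate, then washed. The proteins were transcription factors with an N-terminal polyhistidine tag and DsRed, expressed in E. coli BL21-CodonPlus and purified on Ni–NTA.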
On to “TTGGCGAGACCAGCCATGGCGATGGCGATGACGAACACAGCGGAGTCACCTAGTGCAG”, for which the binding signal is 3460 fluorescence intensity (a.u.).
Then “ACGGCGAGCACCATCGACGAGCTGTACGCGTCAGGCGGGACGGAGTCACCTAGTGCAG”, with 4290 fluorescence intensity (a.u.); and “CTTCAAACCAAATAGACACTAAACACTATTGAAATTGCCACGGAGTCACCTAGTGCAG”, with 3440 fluorescence intensity (a.u.); and “GATCTGCTGCTAGCTAGCATGTTACGTAAATACGTACAAACGGAGTCACCTAGTGCAG”, with 3320 fluorescence intensity (a.u.).
The figure for “ACGATCGGTGACGACGAGCGACGACGCGGCATGAAGACGCCGGAGTCACCTAGTGCAG” is 3300 fluorescence intensity (a.u.); for “AGCTACCATGACGCACGTACCTCCGCCGGCCACGCGTGTGCGGAGTCACCTAGTGCAG” it is 4970 fluorescence intensity (a.u.).
Then “GATAATGAGTCAGTCCTCTTGTCGATACTCCGCCGGTATGCGGAGTCACCTAGTGCAG”, with 5150 fluorescence intensity (a.u.).
As to “AGCCCCAAGCCCAGCCGCGCCCACGCCAAGGCCGCCCACGCGGAGTCACCTAGTGCAG”, the binding signal was 3440 fluorescence intensity (a.u.).
The figure for “GGCGTCCCTCGCCCAGCGTGACTATCTCCCGGCCGGTGGCCGGAGTCACCTAGTGCAG” is 3410 fluorescence intensity (a.u.); for “TACACATATCATCTATCCACATGGCCTCCTTCCTGTTAGGCGGAGTCACCTAGTGCAG” it is 3380 fluorescence intensity (a.u.); for “CTCACCTCACCGCCGATCCGGCCACGCAGCATAAATACGGCGGAGTCACCTAGTGCAG” it is 3800 fluorescence intensity (a.u.).
The figure for “GGGAGGGGAGCCGGCGTTGTCAGCGTCGCTCCGCCCACCGCGGAGTCACCTAGTGCAG” is 5660 fluorescence intensity (a.u.); for “AGTTAATTATGTGCCGGTCCCCGCTGTTGTCCACCATCCGCGGAGTCACCTAGTGCAG” it is 3880 fluorescence intensity (a.u.).
Then “CGTTCCTTCTCATCAGTTTGGCTAAGATTTGGGACCGACCCGGAGTCACCTAGTGCAG”, with 3420 fluorescence intensity (a.u.); and “AAGCAACTCAGCGTGCTAACTTTGGCTGAGTCAACCAAGGCGGAGTCACCTAGTGCAG”, with 4040 fluorescence intensity (a.u.); and “TGCTGAGTGAGTGATGAGTGTGCGAATGTGTGATCGATCGCGGAGTCACCTAGTGCAG”, with 3860 fluorescence intensity (a.u.).
Consider “CAGCGACACTAAGGCCGCCGCCACCGCCGCCTCCCGCGAGCGGAGTCACCTAGTGCAG”, for which the binding signal is 3170 fluorescence intensity (a.u.).
Take “TCTCCTCCTCCTCTCCGCCACCTCGTCTCGTCTCCCCTCCCGGAGTCACCTAGTGCAG”: the binding signal was 3320 fluorescence intensity (a.u.).
Turning to “TATGAGGGTATCAGGGTCGTTGAGGTCTCTCCTCCTACACCGGAGTCACCTAGTGCAG”, the binding signal is 41000 fluorescence intensity (a.u.).
Then “TGGGACCCACACTGACCTCTCACTCACCGCCAGTTGGCCCCGGAGTCACCTAGTGCAG”, with 3350 fluorescence intensity (a.u.).
Take “GTCACGCACGACTCCCATTTATCACGGTCACGCGAGCCCCCGGAGTCACCTAGTGCAG”: the binding signal was 3570 fluorescence intensity (a.u.).
Then “GTTCGTAGGGGTAGGATTTGCATGCGTGTATTTGTAGGGGCGGAGTCACCTAGTGCAG”, with 4560 fluorescence intensity (a.u.); and “CGACGCCGACCTCATGGCCCGCGCCACCACCACCCGCGCCCGGAGTCACCTAGTGCAG”, with 4360 fluorescence intensity (a.u.); and “TCAAGTGTGTTCTATAAACGACACATCATCCACGTACTGACGGAGTCACCTAGTGCAG”, with 10200 fluorescence intensity (a.u.).
Then “TTTGGATTGGCCAGAACAAGATATACTTTCGAATCTTTTGCGGAGTCACCTAGTGCAG”, with 32200 fluorescence intensity (a.u.); and “CGCTCCATGAAAGTGATAGCAGTGACTTGTCCACACAGGTCGGAGTCACCTAGTGCAG”, with 3240 fluorescence intensity (a.u.); and “TTCTAGCCTATTTTAAATCCCATGCAAGCATAACATATTACGGAGTCACCTAGTGCAG”, with 4540 fluorescence intensity (a.u.).
Then “TCGTCGCCACCACCACCACCGCCGTTGCCACTAATCCGCCCGGAGTCACCTAGTGCAG”, with 3700 fluorescence intensity (a.u.).
As to “GCTAATAGGATACACTGATTAGGAGAACAATATGGCACAACGGAGTCACCTAGTGCAG”, the binding signal was 22600 fluorescence intensity (a.u.).
Then “TCTGAGGTTGCTTGCTGATTCACAGGTCGATCGTGTTGCTCGGAGTCACCTAGTGCAG”, with 6190 fluorescence intensity (a.u.); and “AAATCACTCCGTGACTCACACGGCAAACTTTTGTCAATTACGGAGTCACCTAGTGCAG”, with 5320 fluorescence intensity (a.u.).
The figure for “GGCCACTCCTCCACGCACACACCTCTCTCTCTCTCTCTCTCGGAGTCACCTAGTGCAG” is 4390 fluorescence intensity (a.u.).
The figure for “TCCAGTAACCACTCGAATACTGACAAACCAGCATCTCGTTCGGAGTCACCTAGTGCAG” is 5090 fluorescence intensity (a.u.); for “CGGCCCCGGCGCGCGTCGGCATGTGACGTCCCACGTGCGCCGGAGTCACCTAGTGCAG” it is 6620 fluorescence intensity (a.u.).
“TGCGTGTCTATTATACTACGTCATAGCGACCGCCAAAATACGGAGTCACCTAGTGCAG”: the binding signal was 3610 fluorescence intensity (a.u.).
As for “TATCGCCTATCGTCCTCCGCTATGGGTTGTCATCCCCTAGCGGAGTCACCTAGTGCAG”, the binding signal was 3740 fluorescence intensity (a.u.).
Turning to “CCACAAACGTGGCAAAGATTGACACCGAATCTCTGACGTGCGGAGTCACCTAGTGCAG”, the binding signal is 4280 fluorescence intensity (a.u.).
As to “ACGGGAAGCTGCTAGTTTGTGATATTCTTGTTCTACCTAACGGAGTCACCTAGTGCAG”, the binding signal is 3220 fluorescence intensity (a.u.).
The figure for “CTCTCTCTCTCTCTGTTGTGTCAGTGTGTGTGCGTGGCTTCGGAGTCACCTAGTGCAG” is 5180 fluorescence intensity (a.u.); for “CGCAGGGGAAGTCGCGGAGGCCCGTGAACAGGTGGGCGAGCGGAGTCACCTAGTGCAG” it is 3460 fluorescence intensity (a.u.); for “GCAGGTGCCAACGAATATTATGACTCACAATAGTACACTGCGGAGTCACCTAGTGCAG” it is 5890 fluorescence intensity (a.u.).
Turning to “TGTATTTTCTGACGTTGGTAGCACGGTAGCACCCGATATTCGGAGTCACCTAGTGCAG”, the binding signal is 4250 fluorescence intensity (a.u.).
